The text below walks through data of article PMC12921443.

Amino acid sequences for entries named in this document (tags omitted). A change or cut given only in a name is not applied to a line headed by its entry.
UniProt Q9S9Z2: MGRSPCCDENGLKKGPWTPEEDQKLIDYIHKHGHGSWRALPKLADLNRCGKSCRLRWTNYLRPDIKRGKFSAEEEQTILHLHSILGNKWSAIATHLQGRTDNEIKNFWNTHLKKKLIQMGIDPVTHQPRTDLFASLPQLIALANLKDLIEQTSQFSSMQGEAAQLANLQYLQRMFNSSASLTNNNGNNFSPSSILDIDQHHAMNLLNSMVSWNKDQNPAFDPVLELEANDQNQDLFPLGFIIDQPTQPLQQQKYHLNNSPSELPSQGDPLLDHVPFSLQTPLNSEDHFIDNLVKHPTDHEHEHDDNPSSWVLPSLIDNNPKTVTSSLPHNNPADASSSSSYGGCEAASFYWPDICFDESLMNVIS

The test addresses T1, MITOGEN … PROTEIN KINASE 3 (MPK3), full-length (Arabidopsis) (UniProt Q39023).
T1 sequence: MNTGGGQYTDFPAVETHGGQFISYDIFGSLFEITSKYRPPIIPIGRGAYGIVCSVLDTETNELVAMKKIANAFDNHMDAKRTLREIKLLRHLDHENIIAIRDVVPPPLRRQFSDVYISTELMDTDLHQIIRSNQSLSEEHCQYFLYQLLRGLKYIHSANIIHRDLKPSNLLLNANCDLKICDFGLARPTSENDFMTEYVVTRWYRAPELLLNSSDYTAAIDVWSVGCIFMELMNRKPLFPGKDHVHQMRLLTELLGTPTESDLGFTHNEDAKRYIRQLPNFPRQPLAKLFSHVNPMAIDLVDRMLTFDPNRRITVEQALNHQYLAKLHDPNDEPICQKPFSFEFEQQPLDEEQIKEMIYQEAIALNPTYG
The test can be described thus: two-hybrid; MYB93 constructs in pGADT7, MPK3 in pGBKT7; S. cerevisiae AH109; growth on SD -AHLW agar plates, 2-3 days at 30 °C; empty pGBKT7 as control.

No constants are given. Whether binding was seen depends on the method and setting. Binding calls can cover weak binding; strength is not graded here.

Turning to “MYB93 N-terminal region (MYB93-R2R3) (from UniProt Q9S9Z2) (domain or fragment)”, the binding entry is listed as “binds”.
